Test results from PMC9772228, “Structure of a RecT/Redβ family recombinase in complex with a duplex intermediate of DNA annealing”.

Biological target: T1, λ-Redβ (bacteriophage lambda) (UniProt P03698)
T1 sequence (looked up, limits assumed): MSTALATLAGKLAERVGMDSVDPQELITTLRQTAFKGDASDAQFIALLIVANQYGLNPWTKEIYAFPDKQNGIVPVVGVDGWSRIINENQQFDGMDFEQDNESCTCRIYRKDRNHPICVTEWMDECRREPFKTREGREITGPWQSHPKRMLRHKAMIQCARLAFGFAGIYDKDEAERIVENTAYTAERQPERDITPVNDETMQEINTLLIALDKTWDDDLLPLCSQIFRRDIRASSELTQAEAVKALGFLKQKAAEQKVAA
Test: EMSA
Settings: pre-annealed; EMSA: PBS pH 7.4 (or KH2PO4/10 mM MgCl2 pH 6.0), 3.6 or 5 uM protein, 25 uM nt DNA, 37 C 15 min per strand, 0.8% agarose 1x TBE; recombinant protein; label: 5'-Cy3,5'-Cy5

## GCGGATGGCTTAGAGCAGAATCGCCCTGCATAGCTCGATTTTTGCGGATG / CCATCCGCAAAAATCGAGCTATGCAGGGCGATTCTGCTCTAAGCCATCCG [50-mer pre-annealed dsDNA]
  binding result: no binding

Construct, isoform or probe ends are uncertain for at least one entry. Negatives hold for the conditions tested. Tags and fusion partners may be left off the protein sequences shown.
